In this data set the test system is THP1 cells. The experiment in a line: Differential gene expression analysis by RNA-seq in high glucose treated THP1 cells. It is filed as cell-based, human. To be noted: THP1, HG 25 mM 72 hr with vs without C1 5 uM; fold change >1.5, p<0.05. The procedure: FIG. 17. Hierarchical Clustering using differential expressed genes. Differential expression was calculated using these counts with edgeR (5, 6) version 3.0. After correcting for differences in library sizes, a fold change of >1.5 and a p-value of <0.05 were applied to select expressed genes. The corrected measures of the latter were further processed using Cluster3.0 (7) to generate a heatmap using Java TreeView. C=HG treated THP-1 cells (A, B are replicates); T=HG+C1 5 uM (C, D are replicates). […]
RNA-seq: Sequence alignment and gene counts. RNA-Seq reads were trimmed to remove sequencing adapters using Trimmomatic (Bolger et al., 2014), and polyA tails using FASTP (Chen et al., 2018). The processed reads were mapped to the human genome (hg19) using STAR software (v. 020201) (Dobin et al., 2013). […]
Differential gene expression analyses by RNA-seq. […] Differential expression analysis was conducted by adjusting read counts to normalized expression values using the TMM normalization method in edgeR package (Robinson et al., 2010). […] Next, Raw counts for each gene in the GENCODE coding gene annotation (hg19) were measured using HTseq (Anders and Huber, 2010) with an argument of “-r pos -s reserve”. Differential expression was calculated using these counts with edgeR (5, 6) version 3.0. […]

With `CC(C)C(C(=O)O)N1C(=O)c2ccncc2C1=O` (centres unmarked) [Compound C1, 2-(1,3-dioxo-1,3-dihydro-2H-pyrrolo[3,4-c]pyridin-2-yl)-3-methylbutanoic acid], the “number of down-regulated genes” value is listed as 24 and the “number of up-regulated genes” value worked out at 20.

For the origin of these results see US11974990B2, “TXNIP-TRX complex inhibitors and methods of using the same” (City of Hope, priority 2018, dated 2024).
